Assay results taken from patent publication US10357491B2, “Method of treating a brain tumor” (BeyondSpring Pharmaceuticals, Inc., priority 2015, dated 2019).
At least one compound was matched to its structure with a doubt left.

Tested on: PDGF-induced gliomas
Assay: PDGF-induced model of glioma: response to temozolomide (T2 weighted MRI, survival)
Type: in vivo
Conditions: glioma-bearing mice; temozolomide 25 mg/kg daily for 12 days; compared with vehicle tumors, which grew

Q: With Cn1nnc2c(C(N)=O)ncn2c1=O [temozolomide] as the compound, how does the “tumor volume (T2 weighted MRI, FIG. 2A)” value read?
A: shrank in volume
